{"source": "PubChem BioAssay AID1347075", "about": "(National Center for Advancing Translational Sciences (NCATS), 2019)", "note": "The whole screen tested about 400,000 compounds, of which about 5,500 (1.4%) were called active. Inconclusive means that the source gave no clear call. Such entries were picked first, then a sample of the others. The call rests on the fitted dose curve; in most records, active means well fitted cell-killing curve with a large enough effect; inconclusive means small, poorly fitted or top-dose-only effect, or effect the other way; inactive means flat fitted curve, though single readings scatter. A potency beside an inconclusive call is a rough fit, not a confirmed value. On the % scale 0 is the no-effect control and ±100 the full control effect; potency means the concentration at half of the fitted maximal effect."}
{"assay": "qHTS assay for MDR1-selective chemotherapeutics: Primary screen using the parental adenocarcinoma cell KB-3-1; further: nearly all actives have a fitted effect of over 60% in size", "details": "KB-3-1 viability, CellTiter-Glo ATP luminescence, 72 h; activity change, negative = cytotoxic: at 46.1 µM (top of the series)", "summary_of_the_method": "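Cytotoxicity measured as CellTiter-Glo luminescence after 72 h at 37 C. Compound titrations were pinned onto drug-naive KB-3-1 parental adenocarcinoma cells grown in DMEM with 10% FBS, and normalized data fitted to concentration-response curves.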"}
{"smiles": "Cc1cc(=O)oc2cc(OCc3ccc(S(=O)(=O)N4CCOCC4)cc3)ccc12", "Potency": "inconclusive: 11.6 µM [cytotoxic, partial curve, poor fit]"}
{"smiles": "CCOc1ccc(C(=O)NC(C(=O)NCC(c2cccs2)N(C)C)C(C)C)cc1", "note": "(stereo unspecified)", "activity change, negative = cytotoxic": "inactive: 9.09%"}
{"smiles": "O=[N+]([O-])c1cccc(/C=N/N2CCN(Cc3ccccc3)CC2)c1", "activity change, negative = cytotoxic": "inactive: 7.01%"}
{"smiles": "N#Cc1c(NC(=O)c2cccnc2)sc2c1CCC2", "Potency": "active: 9.2 µM"}
{"smiles": "Cc1cc(-c2ccc(C)c(S(=O)(=O)NCCCN3CCN(c4ccccc4)CC3)c2)on1", "Potency": "inconclusive: 13 µM [cytotoxic, partial curve]"}
{"smiles": "Cc1nc2c(-c3ccc(F)cc3)c(C)nn2c(C)c1CCC(=O)NCc1cccc(Cl)c1", "Potency": "inconclusive: 0.0082 µM [cytotoxic, full curve]"}
{"smiles": "Cc1cccc(NC(=S)NCc2ccc3c(c2)cc(C)n3C)c1C", "Potency": "inconclusive: 29.1 µM [cytotoxic, single point]"}
{"smiles": "COc1ccc2c(CC(=O)Nc3ncc(C)s3)coc2c1", "Potency": "inconclusive: 25.9 µM [cytotoxic, single point]"}
{"smiles": "CSC(=Nc1ccccc1)N=C(SCc1ccccc1)N(C)C", "Potency": "active: 4.11 µM"}
{"smiles": "Cc1nc(NC(=O)/C=C/c2ccccc2)n[nH]1", "Potency": "inconclusive: 16.4 µM [cytotoxic, single point]"}
{"smiles": "CCOc1cccc(C2c3[nH]c4ccccc4c3CCN2C(=O)Cc2cccc(OCC)c2OCC)c1", "note": "(stereo unspecified)", "activity change, negative = cytotoxic": "inactive: -4.11%"}
{"smiles": "CCC(C)Sc1cccc(-c2nc3cc(C)ccn3c2NCc2ccccc2)c1", "note": "(stereo unspecified)", "activity change, negative = cytotoxic": "inactive: -25.4%"}
{"smiles": "O=C1CC(c2ccccc2)=NN1c1ccccc1", "Potency": "inconclusive: 20.6 µM [cytotoxic, single point]"}
{"smiles": "Cc1ccc2sc(N(CCCN(C)C)C(=O)c3nc4ccccc4s3)nc2c1C", "Potency": "inconclusive: 29.1 µM [cytotoxic, single point]"}
{"smiles": "COc1cc(NC(=O)C2CC(c3cccc(OC)c3OC)=NO2)cc(OC)c1OC", "note": "(stereo unspecified)", "Potency": "inconclusive: 35.5 µM [cytotoxic, single point]"}
{"smiles": "Nc1cc(-c2ccc(Br)cc2)nn1S(=O)(=O)c1cccc2nsnc12", "Potency": "inconclusive: 11.6 µM [cytotoxic, partial curve]"}
{"smiles": "COc1ccc2c(CNCCc3ccccc3OC)c(C(=O)O)n(Cc3ccc(F)cc3Cl)c2c1", "Potency": "active: 20.6 µM"}
{"smiles": "CCC(=O)NC(c1cccs1)c1cc([N+](=O)[O-])c2cccnc2c1OC", "note": "(stereo unspecified)", "Potency": "inconclusive: 29.1 µM [rising, single point]"}
{"smiles": "CCc1ccc(S(=O)(=O)Nc2cccc(-c3ccc4nncn4n3)c2)s1", "Potency": "inconclusive: 10.3 µM [cytotoxic, partial curve, poor fit]"}
{"smiles": "O=c1[nH]n(-c2cccc(Cl)c2)c2ncccc12", "Potency": "inconclusive: 16.4 µM [cytotoxic, partial curve]"}
{"smiles": "COc1cccc(NC(=S)N2CCn3cccc3C2c2cccnc2)c1", "note": "(stereo unspecified)", "activity change, negative = cytotoxic": "inactive: 0.528%"}
{"smiles": "O=C1CCCc2c1cc(-c1ccccc1)n2-c1ccccc1", "Potency": "active: 16.4 µM"}
{"smiles": "CCCCN(Cc1ccco1)C(=O)C1CCCN(c2ncnc3c2nc2n3CCCCC2)C1", "note": "(stereo unspecified)", "Potency": "inconclusive: 13 µM [cytotoxic, partial curve]"}
{"smiles": "O=C(O)[C@@H](O)[C@@H](O)[C@H](O)[C@H](O)CO", "Potency": "inconclusive: 0.651 µM [rising, partial curve, poor fit]"}
{"smiles": "CCN(C(=O)C(C)N1C(=O)/C(=C/c2ccco2)SC1=S)C1CCS(=O)(=O)C1", "note": "(stereo unspecified)", "Potency": "inconclusive: 16.4 µM [cytotoxic, partial curve, poor fit]"}
{"smiles": "C/C(=N\\Nc1nc(C)cc(-c2ccccc2)n1)c1ccc(F)cc1", "Potency": "inconclusive: 29.1 µM [cytotoxic, single point]"}
{"smiles": "CN(C)Cc1c(C(=O)N/N=C/c2ccccc2OCc2c(F)cccc2Cl)nnn1-c1nonc1N", "Potency": "inconclusive: 29.1 µM [cytotoxic, single point]"}
{"smiles": "CC(c1ccc(F)cc1)n1c(-c2cccs2)n[nH]c1=S", "note": "(stereo unspecified)", "activity change, negative = cytotoxic": "inactive: -4.98%"}
{"smiles": "O=C(NCc1nc2ccccc2[nH]1)C1=C[C@@H](C2CCCCC2)C[C@@H](OCc2ccc(CO)cc2)O1", "Potency": "inconclusive: 29.1 µM [cytotoxic, single point]"}
{"smiles": "CCn1c(C)c(C)c2cc(C(=O)NC3CCCCCC3)ccc21", "activity change, negative = cytotoxic": "inconclusive: -2.1%"}
{"smiles": "COc1ccc(C(=O)Oc2ccc(F)cc2C(=O)/C=C/c2ccc(OC)c(OC)c2)cc1", "activity change, negative = cytotoxic": "inactive: 6.8%"}
{"smiles": "CCC(Oc1ccccc1OC)C(=O)Nc1ccc2c(c1)OCO2", "note": "(stereo unspecified)", "Potency": "inconclusive: 20.6 µM [cytotoxic, single point]"}
{"smiles": "COC(=O)c1cc(NC(=S)Nc2cc(Cl)cc(Cl)c2)cc(C(=O)OC)c1", "Potency": "inconclusive: 29.1 µM [cytotoxic, single point]"}
{"smiles": "CCN1C(=O)N(S(=O)(=O)c2ccc(C)cc2)[C@@H](c2ccccc2)C(C(=O)OC)=C1C", "Potency": "inconclusive: 20.6 µM [cytotoxic, single point]"}
{"smiles": "N#Cc1nc(COc2ccccc2F)oc1NCc1ccc(F)cc1", "activity change, negative = cytotoxic": "inactive: 2.51%"}
{"smiles": "Cc1cc(F)ccc1NC(=O)CN1C(=O)CCc2cc(S(=O)(=O)N3CCOCC3)ccc21", "activity change, negative = cytotoxic": "inactive: 11.3%"}
{"smiles": "COc1ccc(Cl)cc1NC(=O)c1cc2nc(-c3ccc(C)cc3)cc(C(F)(F)F)n2n1", "Potency": "inconclusive: 16.4 µM [rising, single point]"}
{"smiles": "COc1ccc(C2=NS(=O)(=O)N(C)C(C(=O)Nc3ccc4c(c3)OCO4)=C2)cc1OC", "activity change, negative = cytotoxic": "inconclusive: -20.8%"}
{"smiles": "O=C(NC(=S)NNC(=O)c1ccccc1O)c1ccccc1", "Potency": "inconclusive: 14.6 µM [cytotoxic, partial curve, poor fit]"}
{"smiles": "Cc1cc(CNC(=O)c2ccc3c(c2)OCO3)c2ccccc2n1", "Potency": "inconclusive: 32.6 µM [cytotoxic, partial curve, poor fit]"}
{"smiles": "CC(=O)c1ccc2c(c1)OCCOCCOCCO2", "Potency": "inconclusive: 10.3 µM [rising, partial curve, poor fit]"}
{"smiles": "Cc1cc(/C=C2\\SC(=S)N(C)C2=O)c(C)n1-c1cccc(O)c1", "Potency": "inconclusive: 23.1 µM [cytotoxic, single point]"}
{"smiles": "COc1cc(NC(=O)CCCN2C(=O)CCn3nc(-c4cn(C)c5ccccc45)cc32)cc(OC)c1", "activity change, negative = cytotoxic": "inactive: -1.58%"}
{"smiles": "O=C(NC(=S)NNC(=O)c1ccccc1O)c1cccc([N+](=O)[O-])c1", "Potency": "inconclusive: 29.1 µM [cytotoxic, single point]"}
{"smiles": "CCC(C)NC(=O)c1ccc(Cl)c(S(=O)(=O)Nc2ccccc2N2CCOCC2)c1", "note": "(stereo unspecified)", "Potency": "inconclusive: 5.17 µM [cytotoxic, full curve, poor fit]"}
{"smiles": "Cc1cccc(-c2nnc3n2N=C(c2ccccc2)CS3)c1", "Potency": "inconclusive: 29.1 µM [cytotoxic, single point]"}
{"smiles": "COc1ccc([C@H]2CC(=O)C=C(c3ccc4ncccc4c3)C2)cc1", "Potency": "inconclusive: 5.17 µM [cytotoxic, partial curve, poor fit]"}
{"smiles": "CCOc1ccccc1CNC(=O)c1cc2oc3ccccc3c2n1CC", "Potency": "inconclusive: 11.6 µM [cytotoxic, partial curve]"}
{"smiles": "Cc1nc2ccc(NC(=O)c3nn(CC(C)C)c(=O)c4ccccc34)cc2s1", "Potency": "inconclusive: 1.03 µM [rising, full curve, poor fit]"}
{"smiles": "CCCCOC(=O)C1CCCC(C)N1", "note": "(stereo unspecified)", "Potency": "inconclusive: 0.058 µM [rising, full curve]"}
{"smiles": "CC(=NNC(=S)N(Cc1ccccn1)Cc1ccccn1)c1cnccn1", "Potency": "inconclusive: 7.31 µM [cytotoxic, partial curve, poor fit]"}
{"smiles": "Cc1ccc(-c2csc(NC(=O)CSc3nnc4c(n3)[nH]c3ccccc34)n2)cc1", "Potency": "inconclusive: 16.4 µM [cytotoxic, single point]"}
{"smiles": "Cc1ccn2c(-c3csc(NCc4ccccc4)n3)c(C)nc2c1", "Potency": "inconclusive: 29.1 µM [cytotoxic, single point]"}
{"smiles": "CCN1C(=O)[C@H]2[C@H]3CN=C(SCc4ccccc4)N3[C@@](CC)(C(=O)OC)[C@H]2C1=O", "Potency": "inconclusive: 18.4 µM [rising, partial curve, poor fit]"}
{"smiles": "CC(CCc1ccco1)NC(=O)c1cc2c(-c3ccccc3F)nn(C)c2s1", "note": "(stereo unspecified)", "Potency": "inconclusive: 32.6 µM [cytotoxic, single point]"}
{"smiles": "N#CC1=C(N)NC(SCc2ccccc2)=C(C#N)C12CCCCC2", "Potency": "active: 23.1 µM"}
{"smiles": "CC1C(=O)N(Cc2cn(CCC3OCCCO3)nn2)CCS(=O)(=O)N1Cc1ccc(-c2ccc(Cl)c(Cl)c2)cc1", "note": "(stereo unspecified)", "Potency": "inconclusive: 29.1 µM [cytotoxic, single point]"}
{"smiles": "COc1ccc(-c2coc3c(C(=O)NCC4CCOCC4)cccc23)c(C)c1", "activity change, negative = cytotoxic": "inactive: -18.8%"}
{"smiles": "Cc1cccc(NC2CCCCC2NS(=O)(=O)c2ccccc2)c1", "note": "(stereo unspecified)", "activity change, negative = cytotoxic": "inactive: 6.84%"}
{"smiles": "Cc1ccccc1N=Nc1ccc(O)c2ncccc12", "Potency": "inconclusive: 1.64 µM [cytotoxic, full curve, poor fit]"}
{"smiles": "O=C(COc1ccc(F)cc1)OCc1cc(=O)n2nc(C3CC3)sc2n1", "activity change, negative = cytotoxic": "inactive: 6.04%"}
{"smiles": "COc1ccc(C(=O)C[n+]2ccc3c(c2)nc(-c2cc(OC)c(OC)cc2OC)n3C)cc1", "Potency": "inconclusive: 18.4 µM [cytotoxic, partial curve, poor fit]"}
{"smiles": "NC1=NC[C@@H](Cc2ccc(O)cc2)N1CCC12CC3CC(CC(C3)C1)C2", "Potency": "inconclusive: 29.1 µM [cytotoxic, single point]"}
{"smiles": "COc1cc(COc2ccc(S(=O)(=O)N3CCOCC3)cc2[N+](=O)[O-])ccc1OC(F)F", "activity change, negative = cytotoxic": "inactive: -3.12%"}
{"smiles": "COc1ccc(Nc2nc(C)c(-c3ccccc3)s2)cc1", "Potency": "inconclusive: 23.1 µM [cytotoxic, partial curve]"}
{"smiles": "COC(=O)C1=C(C(=O)OC)[C@@H]2N(Cc3ccccc3)c3ccccc3[C@@]23C[C@@H](C(=O)OC)N(C(=O)COCc2ccccc2)C3=N1", "Potency": "inconclusive: 29.1 µM [cytotoxic, single point]"}
